# Library screen at single concentrations

From ChEMBL document CHEMBL3988442, “University of Dundee, Small-Polar-MMV Screening Library” (2021).

Values are the deposited “Percent Effect”, in %.
The controls that fix the scale are not given in the record; negative values are as filed.
Compounds were drawn at random from those tested, without regard to their results.
Two or more numbers in one place are separate tests of the same structure; such repeats can differ widely.

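Growth of Mycobacterium tuberculosis over 3 days (7H9 medium with glucose and tyloxapol); the read-out is not stated. Tested at 50 µM. Higher reads as more growth inhibition (inferred: compounds with an IC50 in retests scored well above the rest). Size under these conditions: about 69,000 compounds, about 760 of them at 50% or above in at least one test.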

Compound,percent effect
COc1ccc(CN2CCOC(CCc3ccnc(N)c3)C2)cc1 (configuration not stated),27.98
O=C(O)C(F)(F)F.O=C1COC2(CCN(Cc3cccs3)CC2)CN1c1cncnc1,-2.078
O=C(O)C(F)(F)F.[H][C@]12C[C@@H](Cn3cncn3)N(C(C)=O)[C@@]1([H])CCN(c1ncc(F)cn1)C2,-3.709 & 23.94
Cc1ccc2c(n1)N(Cc1cccnc1)CCN(C(=O)C1CC=CC1)C2,17.8
CC(C)OCCOCc1cccc(NC(=O)NCCn2ccnc2)c1,15.38
O=C(NCC(=O)N1CCCc2ccccc21)c1c(O)cc(F)cc1F,-8.58
COc1cccc(N2CCN(C(=O)[C@H](O)C3CCCCC3)CC2=O)c1,-4.938
CN(C)c1nc2sc(C(=O)N3CCNC(=O)CC3)cc2s1,-13.41
CN(Cc1ccc2c(c1)OCCO2)Cc1nnnn1-c1ccccc1,4.862
Cc1cc(C(=O)N2CCCC(C)C2)ccc1NCc1nc(C2CC2)no1 (configuration not stated),28.06
CC(=O)NC(Cc1c[nH]c2cc(F)ccc12)C(=O)Nc1cnn(C)c1 (configuration not stated),14.04
CC(=O)N1CCCC(c2ccc(N3CCN(C)CC3)cn2)C1 (configuration not stated),-15.36
Cc1ncc(C(=O)N2CCCC(C(=O)c3nccn3C)C2)c(O)n1 (configuration not stated),9.885
Cc1ccc2cccc(S(=O)(=O)N(C)CC3CCN(C)CC3)c2n1,17.31
Cc1cc(C)n(CCC(=O)N2CCCCC2c2nccs2)n1 (configuration not stated),-23.06
COc1cccc(OC)c1-c1ccnc2cc(CC(=O)N(C)C)nn12,36.27
CCCN(CC(F)F)c1cc(COC)nc2ncnn12,22.76
CC(C)CNC(=O)c1ccc2c(c1)nc1n2CCN(Cc2ccco2)C1,15.99
Cc1nn(CCC(=O)NC2CCS(=O)(=O)C2)c(C)c1Br (configuration not stated),20.23
NCCc1nc(N(Cc2cncs2)C2CC2)c2ccccc2n1,-7.703
CN(Cc1ncc[nH]1)CC1CCOc2ccccc2C1 (configuration not stated),2.466
Cc1ccc(-c2nc(C(=O)N3CCN(C(=O)N(C)C)CC3)cs2)c(C)c1,-16.26
CC(C)c1ncc2c(n1)CN(CC(=O)Nc1ccc(Cl)cn1)CC2,11.09
N#Cc1ccsc1C(=O)N1CCCCC1Cn1cccn1 (configuration not stated),-39.59 & -9.727
CC(Cn1cncn1)NCc1csc2c1CCCC2 (configuration not stated),-16.78
CC(C)(C)N1CCN(C(=O)Nc2cc(C(F)(F)F)c[nH]c2=O)CC1,1.43
CC(C)c1nc(CN(C)C(=O)CNC(N)=O)cs1,-3.251 & -3.587
O=C(O)C(F)(F)F.[H][C@@]12CCN(C(C)=O)C[C@]1(C(=O)NCCc1ccccn1)CCO2,-10.53
O=C(CSC1CCc2ccccc2NC1=O)NCc1cccs1 (configuration not stated),4.263
COc1c(C)cnc(CN(C)C(=O)c2cccnc2N(C)C)c1C,-18.22
CCCN(Cc1cccnc1)C(=O)C1CCS(=O)(=O)CC1,-2.847 & -4.84
O=C1CCC(c2ccccc2)(c2ccccc2)CN1CCO,-5.103
CCN(C)CCNC(=O)Cc1nc(-c2ccco2)oc1C,-23.39
Cc1occc1C(=O)N1CCCC2(CCN(c3ccccc3)C2=O)C1 (configuration not stated),-9.026 & -0.2453
Cc1noc(CNC(=O)C2CSCCC(=O)N2)n1 (configuration not stated),-8.253
Cc1cc(C2CCCN2C(=O)c2ccc(OCC(N)=O)cc2)no1 (configuration not stated),-4.53
CN(CC1Cc2ccccc2CN1C)C(=O)CSc1ccccn1 (configuration not stated),16.82
Cc1nocc1C(=O)N1CCCC2(CCN(c3cnn(C)c3)C2=O)C1 (configuration not stated),-41.46
COC[C@]1(O)CCN(C2CCN(c3ccc(OC)cc3)CC2)CC1(C)C,-13.77
CC1C(=O)Nc2cccnc2N1S(=O)(=O)c1ccc(C#N)c(Cl)c1 (configuration not stated),15.02
CCCNC(=O)N1CCc2ccc(S(=O)(=O)N3CCN(C)CC3)cc2C1,10.66
CCc1ccc(O)c(C(=O)NC2CCN(C(=O)OC)CC2)c1,6.499
O=C(O)C(F)(F)F.O=C(O)C(F)(F)F.[H][C@@]12CCCO[C@]1([H])[C@H](N1CCN(C)CC1)CN2C(=O)c1occc1C,-4.673
Cc1cc(CN2CCC(CNS(=O)(=O)c3c(C)noc3C)CC2)c(C)o1,-1.7 & -14.2
Cc1noc(C2CCCN(C(=O)c3cc(Cl)cn3C)C2)n1 (configuration not stated),0.1197
CC(C)OCCn1nnnc1Cc1ccc(Br)cc1,55.01
Cc1cc(C)n(CC2CN(CC(=O)NC3CCOCC3)CCO2)n1 (configuration not stated),15.59
O=C(O)C(F)(F)F.[H][C@@]12CCCO[C@]1([H])[C@H](N(C)C)CN2C(=O)Cc1cccc(F)c1,1.88
CC(=O)N1CC(=O)N(c2cnn(C)c2)CC12CCN(Cc1nccs1)C2 (configuration not stated),7.915 & 7.673
Cn1ncc2c(NCCOCc3ccccc3)nc(C3CCCC3)nc21,38.92
CC(C)c1nnc2n1CCN(CCC(=O)Nc1sccc1C#N)C2,26.3
CCN(CC1CCOC1)C(=O)c1ccn(-c2cc(C)ccc2OC)n1 (configuration not stated),14.31 & -14.3
O=C(O)C(F)(F)F.[H][C@@]12COC[C@H](C(=O)N3CCCCO3)[C@]1([H])CN(Cc1ccc(C)o1)C2,13.72
CC(C)c1cc(C(=O)N2CCCC(c3cc(=O)nc4n3CCC4)C2)no1 (configuration not stated),-13.05
CC(=O)N1CCCn2nc(CNS(=O)(=O)N(C)C(C)C)cc2C1,18.82
Cc1nnc(N2CCCC3(CN(Cc4ccc(C)s4)CCO3)C2)o1.O=C(O)C(F)(F)F.O=C(O)C(F)(F)F (configuration not stated),11.73
Cc1ncsc1CCC(=O)NC1CCN(Cc2cccs2)CC1,-10.05 & 10.51
O=C(c1nnn(-c2ccc(C(F)(F)F)cc2)n1)N1CC(O)C1,-16.07 & 6.73
CCOC(=O)CNC(=O)NCc1cc(C)n(-c2ccc(OC)cc2)c1C,21.91
CNC(=O)C(C)(C)NC(=O)c1cc(COc2cccc(C(C)=O)c2)[nH]n1,10.03
O=C(O)C(F)(F)F.O=C(O)C(F)(F)F.O=C(O)C(F)(F)F.[H][C@@]12CCN(c3ncccn3)[C@@]1([H])CCN2Cc1csc(C)n1,20.76 & -3
CN1CCC2(COCc3cnc(N4CCOCC4)nc32)C1.O=C(O)C(F)(F)F (configuration not stated),-7.577
CNc1nc(C2CCCN(C(=O)C(C)(C)OC)C2)nc2c1CN(C)CC2 (configuration not stated),-5.799
CCC(CO)N(Cc1ccsc1)Cc1ccccc1C#N (configuration not stated),22.28 & 21.7
c1ccc(C2(NCC3CNc4ccnn4C3)CCC2)cc1 (configuration not stated),-11.35
CCOc1cccc(CNc2ccccc2OC)c1O,-13.62
CCOC(=O)NC(C(=O)NCc1ccc(N2CCCCC2)nc1)C(C)C (configuration not stated),1.354
[H][C@]12CC[C@@]3(N=C(C)N(CCOC)C3=O)[C@@]1([H])CN(C(=O)NCC(C)C)C2,-0.03147
Cn1nc2c(cc1=O)CN(Cc1nc(-c3cccs3)no1)CC2,9.4
Cn1ncnc1NS(=O)(=O)c1ccc(F)cc1,2.479
Cc1cc(CN(C)Cc2cnc3c(c2)c(C)nn3C)no1,-33.82
Cc1cc(C)nc(N2CCC(NCCSc3nnnn3C)CC2)n1,0.9399 & -19.18
Cc1ccnn1CCCNC(=O)C1CCN(S(C)(=O)=O)CC1,-25.73
O=C(O)C(F)(F)F.O=C(O)C(F)(F)F.c1cncc(CN2CCn3c(Cn4cncn4)cnc3C2)c1,-22.98
CO[C@@]1(C)C[C@@H](O)C12CCN(C(=O)C1(c3ccccc3F)CC1)CC2,13.89
O=C(c1cc(C2CC2)on1)N1CC[C@]2(C[C@H](Oc3cccnc3)CO2)C1,6.751
Cc1ncc(CNc2cnccc2CO)s1,1.409
CCc1nnsc1C(=O)N(C)Cc1ccc(C)o1,-19.78

For reference, 10 entries once more:

Compound,percent effect
Cc1nocc1C(=O)N1CCCC2(CCN(c3cnn(C)c3)C2=O)C1 (configuration not stated),-41.46
CC(=O)N1CC(=O)N(c2cnn(C)c2)CC12CCN(Cc1nccs1)C2 (configuration not stated),7.915 & 7.673
CC1C(=O)Nc2cccnc2N1S(=O)(=O)c1ccc(C#N)c(Cl)c1 (configuration not stated),15.02
CC(=O)NC(Cc1c[nH]c2cc(F)ccc12)C(=O)Nc1cnn(C)c1 (configuration not stated),14.04
N#Cc1ccsc1C(=O)N1CCCCC1Cn1cccn1 (configuration not stated),-39.59 & -9.727
CC(C)c1cc(C(=O)N2CCCC(c3cc(=O)nc4n3CCC4)C2)no1 (configuration not stated),-13.05
Cc1noc(C2CCCN(C(=O)c3cc(Cl)cn3C)C2)n1 (configuration not stated),0.1197
Cn1nc2c(cc1=O)CN(Cc1nc(-c3cccs3)no1)CC2,9.4
c1ccc(C2(NCC3CNc4ccnn4C3)CCC2)cc1 (configuration not stated),-11.35
Cn1ncc2c(NCCOCc3ccccc3)nc(C3CCCC3)nc21,38.92